# The list is a part of this screen's results and no random one: it is rich in T/C values a quarter to a half above the control, in often repeated tests (any T/C) and in doses without a T/C. Other doses and runs of a compound stand elsewhere. T/C is the treated group as % of the vehicle group. Some doses have a count of surviving animals in place of a T/C: the source holds a T/C of zero for them, seemingly a mark for toxic or unscored doses. Some survivor counts are full or nearly so, which does not show that the dose was tolerated: survival well below the control is almost never listed, so the zero probably covers shortened survival too. Survivors were counted at the toxicity check, usually on the fifth day, unless a day is given; later deaths do not show. Schedule codes are those of the source, taken here to give the interval after Q, in days (D) or hours (H), and the number of doses after X. Some entries were tested several times; their values stand side by side, smallest first. Where survival is the endpoint, the PubChem record calls one and a half times the control and up active, and a quarter to a half above the control has no call in these data; cut-offs in other NCI protocols can differ. Signs of the kind (2×) stand for listed records that agree. Some T/C values are followed by the survivors on the day toxicity was checked, most often the fifth; where none is given, no animal had died by that day.
# Test system: CD2F1 mice, L1210 leukemia ip, survival T/C
# Test: NCI In Vivo Anticancer Drug Screen. Data for tumor model L1210 Leukemia (intraperitoneal) in CD2F1 (CDF1) mice
# Details: higher T/C = longer survival
# Summary of the method: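 Implant tumor; dose compound or vehicle; measure endpoint in both groups; report treated divided by control.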
# [1] = T/C endpoint: mean survival time, dose: 400.0 mg/kg/injection, schedule: Q01DX009 (ip), vehicle: saline with Tween-80
# [2] = T/C endpoint: mean survival time, dose: 100.0 mg/kg/injection, schedule: Q04DX003 (ip), vehicle: saline with Tween-80
# [3] = T/C endpoint: median survival time, dose: 50.0 mg/kg/injection, schedule: Q01DX009 (ip), vehicle: saline with Tween-80
# [4] = T/C endpoint: median survival time, dose: 100.0 mg/kg/injection, schedule: Q01DX009 (ip), vehicle: saline with Tween-80
# [5] = T/C endpoint: mean survival time, dose: 200.0 mg/kg/injection, schedule: Q01DX009 (ip), vehicle: saline with Tween-80
structure (smiles),measurement,setting,value
Cc1cc(NCCCCCCCCNc2cc(C)nc3cc(N(C)C)ccc23)c2ccc(N(C)C)cc2n1,T/C,"T/C endpoint: median survival time, dose: 6.25 mg/kg/injection, schedule: Q01DX009 (ip), vehicle: distilled water + Tween-80 + alcohol",125 % of control
same,T/C,"T/C endpoint: median survival time, dose: 12.5 mg/kg/injection, schedule: Q01DX009 (ip), vehicle: distilled water + Tween-80 + alcohol",135 % of control
same,T/C,"T/C endpoint: median survival time, dose: 25.0 mg/kg/injection, schedule: Q01DX009 (ip), vehicle: distilled water + Tween-80 + alcohol",137 % of control
same,T/C,"T/C endpoint: median survival time, dose: 25.0 mg/kg/injection, schedule: Q01DX009 (ip), vehicle: distilled water + Tween-80",134 % of control [5 of 6 alive]
same,survivor count,"T/C endpoint: median survival time, dose: 50.0 mg/kg/injection, schedule: Q01DX009 (ip), vehicle: distilled water + Tween-80 + alcohol",0 of 6
same,survivor count,"T/C endpoint: median survival time, dose: 50.0 mg/kg/injection, schedule: Q01DX009 (ip), vehicle: distilled water + Tween-80",0 of 6
CCCCCC(CN(C)C)C(/C=C/c1ccccc1)OC(=O)c1ccc([N+](=O)[O-])cc1 (stereo unspecified),survivor count,[1],3 of 6
O=C(O)c1ccc([N+](=O)[O-])cc1.[Ag],survivor count,"T/C endpoint: mean survival time, dose: 25.0 mg/kg/injection, schedule: Q04DX003 (ip), vehicle: saline with Tween-80",3 of 6
same,survivor count,[2],2 of 6
same,survivor count,"T/C endpoint: mean survival time, dose: 200.0 mg/kg/injection, schedule: Q04DX003 (ip), vehicle: saline with Tween-80",1 of 6
same,survivor count,"T/C endpoint: mean survival time, dose: 400.0 mg/kg/injection, schedule: Q04DX003 (ip), vehicle: saline with Tween-80",1 of 6
COC1=C(C)C(=O)C2=C(C1=O)C(COC(N)=O)C1(OC)C3C(CN21)N3C(=O)c1ccccc1 (stereo unspecified),survivor count,"T/C endpoint: mean survival time, dose: 100.0 mg/kg/injection, schedule: Q01DX001 (ip), vehicle: carboxymethylcellulose (CMC)",1 of 3
same,survivor count,"T/C endpoint: mean survival time, dose: 150.0 mg/kg/injection, schedule: Q01DX001 (ip), vehicle: carboxymethylcellulose (CMC)",0 of 3
same,survivor count,"T/C endpoint: mean survival time, dose: 225.0 mg/kg/injection, schedule: Q01DX001 (ip), vehicle: carboxymethylcellulose (CMC)",0 of 3
CC(C)(C)N1CC1CNC(=O)C(=O)NCC1CN1C(C)(C)C (stereo unspecified),T/C,"T/C endpoint: mean survival time, dose: 6.25 mg/kg/injection, schedule: Q01DX009 (ip), vehicle: saline with Tween-80",137 % of control (2×)
same,T/C,"T/C endpoint: mean survival time, dose: 25.0 mg/kg/injection, schedule: Q01DX009 (oral), vehicle: saline with Tween-80",135 % of control
same,survivor count,"T/C endpoint: mean survival time, dose: 50.0 mg/kg/injection, schedule: Q01DX009 (oral), vehicle: saline with Tween-80",2 of 6
same,survivor count,"T/C endpoint: mean survival time, dose: 100.0 mg/kg/injection, schedule: Q01DX009 (oral), vehicle: saline with Tween-80",3 of 6
same,T/C,"T/C endpoint: median survival time, dose: 3.13 mg/kg/injection, schedule: Q01DX009 (ip), vehicle: saline with Tween-80",129 % of control
same,survivor count,[3],6 of 10 and 10 of 10
N#CCC(=O)N/N=C/c1ccccc1,survivor count,[1],0 of 3
Cc1ccc[n+](CC(O)c2ccc(C(O)C[n+]3cccc(C)c3)cc2)c1 (stereo unspecified),survivor count,"T/C endpoint: mean survival time, dose: 0.3 mg/kg/injection, schedule: Q04DX003 (ip), vehicle: saline",3 of 6
O=C(CCCN1CCC(C(O)c2ccc(F)cc2)CC1)c1ccc(F)cc1 (stereo unspecified),T/C,"T/C endpoint: median survival time, dose: 12.5 mg/kg/injection, schedule: Q01DX009 (ip), vehicle: saline with Tween-80",127 % of control
same,T/C,"T/C endpoint: median survival time, dose: 25.0 mg/kg/injection, schedule: Q01DX009 (ip), vehicle: saline with Tween-80",129 and 137 % of control
same,T/C,[3],133 % of control [5 of 6 alive]
same,T/C,[4],135 % of control
same,survivor count,[4],0 of 6
same,T/C,"T/C endpoint: median survival time, dose: 100.0 mg/kg/injection, schedule: Q01DX009 (oral), vehicle: saline with Tween-80",127 % of control
same,survivor count,"T/C endpoint: median survival time, dose: 100.0 mg/kg/injection, schedule: Q06HX014 (oral), vehicle: saline with Tween-80",5 of 10
same,survivor count,"T/C endpoint: median survival time, dose: 150.0 mg/kg/injection, schedule: Q01DX009 (oral), vehicle: saline with Tween-80",6 of 10
same,survivor count,"T/C endpoint: median survival time, dose: 200.0 mg/kg/injection, schedule: Q01DX009 (oral), vehicle: saline with Tween-80",4 of 7
same,survivor count,"T/C endpoint: median survival time, dose: 400.0 mg/kg/injection, schedule: Q01DX009 (oral), vehicle: saline with Tween-80",1 of 7
same,survivor count,"T/C endpoint: median survival time, dose: 400.0 mg/kg/injection, schedule: Q04DX003 (oral), vehicle: saline with Tween-80",5 of 10
C=CCSc1ncnc2c1ncn2C1OC(CO)C(O)C1O (stereo unspecified),T/C,"T/C endpoint: mean survival time, dose: 58.0 mg/kg/injection, schedule: Q01DX009 (ip), vehicle: carboxymethylcellulose (CMC)",131 % of control
same,T/C,"T/C endpoint: mean survival time, dose: 200.0 mg/kg/injection, schedule: Q01DX009 (ip), vehicle: carboxymethylcellulose (CMC)",140 % of control
NCCc1cc(O)c(O)c(O)c1,T/C,"T/C endpoint: mean survival time, dose: 100.0 mg/kg/injection, schedule: Q01DX009 (ip), vehicle: saline",127 % of control
same,T/C,"T/C endpoint: mean survival time, dose: 400.0 mg/kg/injection, schedule: Q01DX009 (ip), vehicle: saline",133 % of control
COC(=O)C(CCCCN=Cc1ccccc1O)N=Cc1ccccc1O.[Ni] (stereo unspecified),survivor count,[5],5 of 6
COc1ccc(NC(=O)Oc2ccc(C(C)(C)C)cc2)cc1,survivor count,"T/C endpoint: mean survival time, dose: 200.0 mg/kg/injection, schedule: Q04DX002 (ip), vehicle: saline with Tween-80",3 of 3
same,survivor count,"T/C endpoint: mean survival time, dose: 400.0 mg/kg/injection, schedule: Q04DX002 (ip), vehicle: saline with Tween-80",2 of 3
CC1(C)OCC2OC3(CO)NP(=O)(N(CCCl)CCCl)OC3C2O1 (stereo unspecified),survivor count,"T/C endpoint: mean survival time, dose: 500.0 mg/kg/injection, schedule: Q01DX001 (ip), vehicle: distilled water + Tween-80",3 of 6
C/C=C/C=C1/OC(C)=C(C(C)=O)C1=O,survivor count,[5],0 of 10
same,survivor count,[1],0 of 6 and 1 of 10
ClI(Cl)c1ccccc1,survivor count,[5],2 of 6
same,survivor count,[1],0 of 6
Cc1ccc(NC(=S)NCCO)cc1C,survivor count,[5],3 of 6
same,survivor count,[1],3 of 6
Cc1ccc2scc3c4ccccc4nc-3c2c1,survivor count,"T/C endpoint: mean survival time, dose: 200.0 mg/kg/injection, schedule: Q04DX003 (ip), vehicle: acetone",1 of 6
same,survivor count,"T/C endpoint: mean survival time, dose: 400.0 mg/kg/injection, schedule: Q04DX003 (ip), vehicle: acetone",0 of 6
CC(C)[S][Pb]([c]1ccccc1)([c]1ccccc1)[c]1ccccc1,survivor count,"T/C endpoint: mean survival time, dose: 10.0 mg/kg/injection, schedule: Q01DX009 (ip), vehicle: gum acacia",6 of 6
same,survivor count,"T/C endpoint: mean survival time, dose: 20.0 mg/kg/injection, schedule: Q01DX009 (ip), vehicle: gum acacia",0 of 6
Cc1ccc(C(=O)Nc2ccc(S(=O)(=O)O)c3cc(S(=O)(=O)O)cc(S(=O)(=O)O)c23)cc1NC(=O)c1cccc(NC(=O)Nc2cccc(C(=O)Nc3cc(C(=O)Nc4ccc(S(=O)(=O)O)c5cc(S(=O)(=O)O)cc(S(=O)(=O)O)c45)ccc3C)c2)c1,survivor count,"T/C endpoint: median survival time, dose: 100.0 mg/kg/injection, schedule: Q01DX005 (ip), vehicle: saline",5 of 6
same,survivor count,"T/C endpoint: median survival time, dose: 200.0 mg/kg/injection, schedule: Q01DX005 (ip), vehicle: saline",1 of 6
COC(=O)c1ccc(C2CCC(OC(c3ccccc3)c3ccccc3)CC2)cc1 (stereo unspecified),survivor count,[2],6 of 6
O=c1ncccn1[C@@H]1O[C@H](CO)[C@H](O)C1O (stereo partly specified),T/C,"T/C endpoint: median survival time, dose: 50.0 mg/kg/injection, schedule: Q01DX009 (ip), vehicle: saline, evaluated on day 20",126 % of control
same,T/C,"T/C endpoint: median survival time, dose: 50.0 mg/kg/injection, schedule: Q01DX009 (ip), vehicle: saline, evaluated on day 30","107, 114, 118 (2×), 119 % of control"
same,T/C,"T/C endpoint: median survival time, dose: 100.0 mg/kg/injection, schedule: Q01DX009 (ip), vehicle: saline, evaluated on day 20",155 % of control
same,T/C,"T/C endpoint: median survival time, dose: 100.0 mg/kg/injection, schedule: Q01DX009 (ip), vehicle: saline, evaluated on day 30","124, 130, 131, 135, 148 % of control"
same,T/C,"T/C endpoint: median survival time, dose: 200.0 mg/kg/injection, schedule: Q01DX009 (ip), vehicle: saline, evaluated on day 20",164 % of control
same,T/C,"T/C endpoint: median survival time, dose: 200.0 mg/kg/injection, schedule: Q01DX009 (ip), vehicle: saline, evaluated on day 30","131, 137, 141, 144, 166 % of control"
same,T/C,"T/C endpoint: median survival time, dose: 400.0 mg/kg/injection, schedule: Q01DX009 (ip), vehicle: saline, evaluated on day 20",181 % of control
same,T/C,"T/C endpoint: median survival time, dose: 400.0 mg/kg/injection, schedule: Q01DX009 (ip), vehicle: saline, evaluated on day 30","146, 151, 164, 175 % of control (2×)"
same,T/C,"T/C endpoint: median survival time, dose: 400.0 mg/kg/injection, schedule: Q01DX009 (oral), vehicle: saline",130 % of control
same,T/C,"T/C endpoint: median survival time, dose: 800.0 mg/kg/injection, schedule: Q01DX009 (ip), vehicle: saline, evaluated on day 20",189 % of control
same,T/C,"T/C endpoint: median survival time, dose: 800.0 mg/kg/injection, schedule: Q01DX009 (ip), vehicle: saline, evaluated on day 30","128, 166, 193 % of control"
CC12CCC(=O)C=C1CCCC2O (stereo unspecified),survivor count,"T/C endpoint: mean survival time, dose: 400.0 mg/kg/injection, schedule: Q04DX003 (ip), vehicle: saline sonified",5 of 6
